According to publication PMC8750214:
No constants are given. Whether binding was seen depends on the method and setting. Some results given as binding are weak or reduced against the parent protein; the word gives no strength.

By UniProt entry, the sequences of proteins in these tests, tags left out. Where a name states a change or a piece, a line headed by the entry shows the natural chain unless it says otherwise. Chains listed by the source or under a name are the forms on record and can include a tag or linker. Residues count along the entry.
His-tagged 4-1BB protein, native (N-glycosylated, PNGase F-untreated) (Q07011, residues 24-186): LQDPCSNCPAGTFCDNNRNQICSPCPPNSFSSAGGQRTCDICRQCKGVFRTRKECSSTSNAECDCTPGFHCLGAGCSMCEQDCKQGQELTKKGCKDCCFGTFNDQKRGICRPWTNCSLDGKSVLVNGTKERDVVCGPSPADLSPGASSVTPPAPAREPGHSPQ
Flag-tagged human 4-1BB N138Q/N149Q (Q07011, form named): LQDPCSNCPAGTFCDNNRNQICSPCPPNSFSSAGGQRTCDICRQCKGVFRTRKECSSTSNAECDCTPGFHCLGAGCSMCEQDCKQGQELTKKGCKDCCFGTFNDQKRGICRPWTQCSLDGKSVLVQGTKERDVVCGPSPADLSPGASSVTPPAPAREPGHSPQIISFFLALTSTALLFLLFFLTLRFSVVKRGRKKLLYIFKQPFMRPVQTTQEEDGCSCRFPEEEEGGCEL
UniProt P41273, residues 50-254: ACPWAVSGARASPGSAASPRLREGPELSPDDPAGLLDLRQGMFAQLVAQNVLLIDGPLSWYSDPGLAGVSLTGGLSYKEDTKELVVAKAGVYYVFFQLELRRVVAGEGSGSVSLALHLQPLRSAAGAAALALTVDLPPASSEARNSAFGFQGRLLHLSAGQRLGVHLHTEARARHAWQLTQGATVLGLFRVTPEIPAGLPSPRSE

What was measured:
[1] = biological target: His-tagged 4-1BB protein, deglycosylated with PNGase F (human) (UniProt Q07011); assay: ELISA; His-tagged 4-1BB (native or deglycosylated) held on a Ni-NTA-coated 96-well plate, room temperature, 30 min; Fc-tagged 4-1BBL in PBST added for 30 min; detected with HRP anti-human Fc and TMB, OD450; both purified
[2] = biological target: His-tagged 4-1BB protein, native (N-glycosylated, PNGase F-untreated) (human) (UniProt Q07011); assay: as above
[3] = biological target: Flag-tagged human 4-1BB N138Q/N149Q (human) (UniProt Q07011); assay: non-reducing SDS-PAGE with immunoblotting; cell lysates (RIPA buffer) run with and without 50 mM DTT; DTT-sensitive (disulfide-linked) dimers, trimers and oligomers; bands that exist with DTT taken as monomers

| Substance | binding [1] | binding [2] | binding [3] |
| --- | --- | --- | --- |
| human Fc-tagged 4-1BBL (from UniProt P41273 50-254) (Fc fusion) | binds | binds |  |
| Flag-tagged human 4-1BB N138Q/N149Q (from UniProt Q07011 24-255) (receptor) |  |  | binds |
